PubChem BioAssay AID2284334 (EPA ToxCast)
The entries are a selection whose mix differs from that of the whole data set. Records with an inconclusive call do not appear. Active and inactive are the calls of the source. Rule for the calls: active = hit-call score of the fitted dose curve at least 0.9, where 1 is the maximum; inconclusive = response in the unintended direction; inactive = score below 0.9.

Amino acid sequences for entries named in this document (tags omitted). A change or cut given only in a name is not applied to a line headed by its entry.
UniProt Q07869: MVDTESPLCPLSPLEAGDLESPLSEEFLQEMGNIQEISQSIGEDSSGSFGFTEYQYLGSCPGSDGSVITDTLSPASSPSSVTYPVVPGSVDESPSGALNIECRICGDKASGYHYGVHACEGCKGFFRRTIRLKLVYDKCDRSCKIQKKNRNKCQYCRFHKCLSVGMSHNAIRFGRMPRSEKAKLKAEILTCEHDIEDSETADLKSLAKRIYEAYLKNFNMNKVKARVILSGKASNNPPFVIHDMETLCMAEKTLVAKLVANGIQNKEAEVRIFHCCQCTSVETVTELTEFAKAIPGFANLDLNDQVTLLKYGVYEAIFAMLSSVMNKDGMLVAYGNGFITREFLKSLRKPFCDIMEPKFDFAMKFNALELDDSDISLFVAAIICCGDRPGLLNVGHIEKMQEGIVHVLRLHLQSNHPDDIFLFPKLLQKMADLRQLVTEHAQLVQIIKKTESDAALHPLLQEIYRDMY

Target: human Peroxisome Proliferator-activated Receptor alpha (PPARa), PPARA (gene 5465) (UniProt Q07869)
Assay: ATG_hPPARa_EcoTox2: Attagene TRANS-FACTORIAL EcoTox-2 HepG2 Assay for human Peroxisome Proliferator-activated Receptor alpha (PPARa)
Experimental: ATG_EcoTox2 is a cell-based, multiplexed assay created by modifying the existing Attagene TRANS-FACTORIAL system to include a panel of nuclear receptors from some or all the following species: human (Homo sapiens), african clawed frog (Xenopus laevis), rainbow trout (Oncorhynchus mykiss), japanese medaka (Oryzias latipes), and zebrafish (Danio rerio). The ECOTOX2-FACTORIAL format uses HepG2, a human liver cell line, with measurements taken at 24 hours after chemical dosing in a 24-well plate. ATG_hPPARa_EcoTox2 is one of 29 assay components calculated in the ATG_EcoTox2 assay. It is designed to make measurements of mRNA induction, a form of inducible reporter, as detected with fluorescence intensity signals by Reverse transcription polymerase chain reaction (RT-PCR) and Capillary electrophoresis technology.The assay endpoint ATG_hPPARa_EcoTox2 was analyzed in the positive analysis fitting direction relative to DMSO as the negative control and baseline of activity. Using a type of inducible reporter, measures of mRNA for gain-of-signal activity can be used to understand the reporter gene at the transcription factor-level as they relate to the gene PPARa. Furthermore, this assay endpoint can be referred to as a primary readout, because this assay has produced multiple assay endpoints where this one serves a reporter gene function. […]

## Cc1ccc(C)c(OCCCC(C)(C)C(=O)O)c1
  AC50: active: 31.1 µM
